Reference: PubChem BioAssay AID588497 (NMMLSC, 2011)
About 780 (0.22%) of roughly 360,000 compounds were called active. This list was built around the results that the source calls inconclusive (neither active nor inactive); the mix of calls is not that of the screen. Rule as the data show it: active = inhibition above about 35% (passing the limit was not always enough); inconclusive = no clear call, values can overlap the other calls.

What follows are molecules tested on Botulinum neurotoxin type F light chain protease (Clostridium botulinum) (assay: BoNT/F light chain protease inhibitors, primary screen, biochemical, flow cytometry, MLPCN library (AID 588497; also: plate controls were buffer without enzyme for full effect and enzyme alone for no effect)). Conditions: Multiplex microsphere protease cleavage assay, at 10 µM, hits give high values.

SMILES	inhibition
CCOc1ccc(-n2nc3ccc(N)cc3n2)cc1	inconclusive: -10%
Cc1ccc(N(CC(=O)N(C)Cc2ccccc2)S(C)(=O)=O)cc1C	inconclusive: -6.3%
COCCn1c(=S)[nH]c2cc(C(=O)N3CCN(Cc4ccc5c(c4)OCO5)CC3)ccc2c1=O	inconclusive: -9.6%
C/C(CC(=O)Nc1ccc(N(C)C)cc1)=N\NC(=O)c1ccc(F)cc1	inconclusive: 28.3%
COc1ccccc1C(CNC(=O)c1ccc(NS(=O)(=O)c2ccc(C(C)=O)cc2)cc1)N1CCCC1 (stereo not given)	inconclusive: -17.5%
COc1ccc(/C=N/N2CCN(c3ccc(Cl)cc3)CC2)cc1	inconclusive: 4.4%
COc1cccc(OCCn2cc(C=O)c3ccccc32)c1	inconclusive: 19%
COc1ccc(-n2nc3cc(N)c(Br)cc3n2)cc1	inconclusive: -73.2%
CN1C(c2ccccc2)CC(=NO)CC1c1ccccc1 (stereo not given)	inconclusive: -4.3%
COc1ccc(-c2ccnc(SCC(=O)c3ccc(OC)c(OC)c3)n2)cc1	inactive: -10.6%
Cc1ccccc1NC(=O)NC1CCCc2ccccc21 (stereo not given)	inactive: 11%
CCCn1nnc(NC(=S)NC(=O)/C=C/c2ccco2)n1	inconclusive: 5.7%
CS(=O)(=O)N1CCc2cc(C(=O)Nc3cccc([N+](=O)[O-])c3)ccc21	inconclusive: 15.7%
CC(=O)NC(C)(CC(=O)c1ccccc1)c1ccccc1 (stereo not given)	inconclusive: 33.1%
Cc1ccc2c(c1)C(c1ccccc1)C(=O)O2 (stereo not given)	inconclusive: -135%
CCN1CCN(c2ccc(S(=O)(=O)N3CCOCC3)cc2NC(=O)/C=C/c2ccc(OC)cc2OC)CC1	inconclusive: -2.7%
O=C(CCC1CCN(Cc2ccccc2O)CC1)NC1CC1	inconclusive: 23.8%
Cc1cc(NC(=O)CSc2nc3ccccc3c(=O)n2CCCC(=O)NCc2ccccc2)n[nH]1	inactive: -9.8%
Cc1cccc(C)c1OCC(=O)N(Cc1ccc(N(C)C)cc1)C1CCS(=O)(=O)C1 (stereo not given)	inconclusive: -54.3%
O=C(c1ccc(Cl)cc1Cl)c1ncc(C(F)(F)F)cc1Cl	inactive: -0.3%
O=C(Nc1ccccc1)c1c(O)c2c(n(Cc3ccco3)c1=O)CCCC2	inconclusive: -4.1%
N#C/C(=N\Nc1ccccc1)C(N)=S	inconclusive: 9.5%
C/C(CC(=O)Nc1cccnc1)=N\NC(=O)C(C)Oc1ccc(Cl)cc1Cl (stereo not given)	inconclusive: 31.4%

SMILES	inhibition
Nc1nc(CCl)nc(N(c2ccccc2)c2ccccc2)n1	inactive: -0.5%
CCOC(=O)c1cccc(NC(=O)c2ccc(NC(=O)C3CCCO3)cc2)c1 (stereo not given)	inactive: -1.4%
O=C(NCc1ccccc1)c1ccc(=O)oc1	inconclusive: -20.4%
Cc1ccc(N2C(=O)C(Cl)=C(NCc3ccccc3)C2=O)c(C)c1	inconclusive: 1.6%
CC(C)(CO)NS(=O)(=O)c1ccc2c(c1)Cc1cc(S(=O)(=O)NC(C)(C)CO)ccc1-2	inconclusive: -22.5%
COC(=O)c1cc(NC(=O)c2cccnc2)cc(C(=O)OC)c1	inconclusive: 16.9%
CN(CCN1CCc2ccccc2C1)Cc1nc(Cc2ccccc2F)no1	inactive: -2.1%
COc1cc([N+](=O)[O-])ccc1NC(=O)Oc1ccc(NC(C)=O)cc1	inconclusive: -0.5%
Cc1ccc(-n2c(C)nc3c(cnn3-c3ccc(F)cc3)c2=O)cc1	inconclusive: -9.2%
Cc1noc(C)c1C(=O)OC(C)C(=O)N(C)c1ccccc1 (stereo not given)	inconclusive: -2.9%
O=C(NNc1ccccc1[N+](=O)[O-])Nc1ccccc1	inactive: -0.7%
Cc1nn(C(C)(C)C)c(OC(=O)c2cccs2)c1Sc1ccccc1	inconclusive: 12.8%
COc1ccc(/C=N/NC(=O)c2cc(C3CC3)[nH]n2)cc1OC	inconclusive: 20.3%
COc1cc(NS(=O)(=O)c2ccc(NC(=O)/C=C/C(=O)O)cc2)nc(OC)n1	inconclusive: -26.6%
CC1CN(c2ccc(NC(=O)c3ccco3)cc2C(=O)O)CC(C)O1 (stereo not given)	inconclusive: 34%
Cc1ccc(C(=O)NNC(=O)c2cccc(Br)c2)cc1	inconclusive: -52.6%
Cn1nnnc1NCc1ccccc1F	inconclusive: 9.1%
Cc1ccc(CSCCNC(=O)c2cccc([N+](=O)[O-])c2)cc1	inactive: -10.7%
O=C(c1cccc(S(=O)(=O)N2CCCC2)c1)N1CCN(S(=O)(=O)c2cccc(Cl)c2)CC1	inconclusive: 5.9%
O=C(O)Cn1c(-c2ccccn2)nc2ccccc21	inconclusive: 39.2%
COc1cc(/C=N/NC(=O)Cc2ccccc2)cc(OC)c1OC	inconclusive: 11.9%
O=C(Oc1cccc(NC2=NS(=O)(=O)c3ccccc32)c1)c1cccnc1	inactive: 5%
